# Some of the results follow.
# B1: R2-fiber (Pseudomonas aeruginosa), Q9S576 (protein)
# chain: HHHHHHKVAKDLVVSLAYQVRTEDGVLVDESPVSAPLDYLHGHGSLISGLETALEGHEVGDKFDVAVGANDAYGQYDENLVQRVPKDVFMGVDELQVGMRFLAETDQGPVPVEITAVEDDHVVVDGNHMLAGQNLKFNVEVVAIREATEEELAHGHVHGAHDHHHDHDHDGCCGGHGHDHGHEHGGEGCCGGKGNGGCGCHENLYFQGVTAGMALAATDIPGLDASKLVSGVLAEQRLPVFARGLATAVSNSSDPNTATVPLMLTNHANGPVAGRYFYIQSMFYPDQNGNASQIATSYNATSEMYVRVSYAANPSIREWLPWQRCDIGGSFTKEADGELPGGVNLDSMVTSGWWSQSFTAQAASGANYPIVRAGLLHVYAASSNFIYQTYQAYDGESFYFRCRHSNTWFPWRRMWHGGDFNPSDYLLKSGFYWNALPGKPATFPPSAHNHDVGQLTSGILPLARGGVGSNTAAGARSTIGAGVPATASLGASGWWRDNDTGLIRQWGQVTCPADADASITFPIPFPTLCLGGYANQTSAFHPGTDASTGFRGATTTTAVIRNGYFAQAVLSWEAFGR
# What was measured:
# Test in all cases: glycan array binding signal (z-score within array); higher = stronger binding
# Conditions in all cases: glycan notation: IUPAC condensed, linker removed
# [1] = biological target: Neu5Ac(a2-3)Gal(b1-4)GlcNAc(b1-3)[Neu5Ac(a2-3)Gal(b1-4)GlcNAc(b1-6)]GalNAc
# Outline: (§1)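 Glycan array binding is given as a within-array Z-score, which can be read as non-binding when negative. The arrays, 3228 of them, came from the Consortium for Functional Glycomics database and were retained only where the protein sequence was available. Z-scores were averaged across arrays of the same protein sequence at different concentrations or buffers and across linkers.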
# [2] = biological target: Neu5Ac(a2-3)Gal(b1-4)GlcNAc(b1-6)GalNAc
# Outline: as §1
# [3] = biological target: Neu5Ac(a2-3)Gal(b1-4)GlcNAc(b1-6)[Gal(b1-3)]GalNAc
# Outline: as §1
# [4] = biological target: Neu5Ac(a2-3)Gal(b1-4)GlcNAc(b1-6)[Neu5Ac(a2-3)Gal(b1-3)]GalNAc
# Outline: as §1
# [5] = biological target: Neu5Ac(a2-3)Gal(b1-4)GlcNAc6S
# Outline: as §1
# [6] = biological target: Neu5Ac(a2-3)Gal(b1-4)[Fuc(a1-3)]GlcNAc
# Outline: as §1
# [7] = biological target: Neu5Ac(a2-3)Gal(b1-4)[Fuc(a1-3)]GlcNAc(b1-2)Man
# Outline: as §1
# [8] = biological target: Neu5Ac(a2-3)Gal(b1-4)[Fuc(a1-3)]GlcNAc(b1-3)Gal
# Outline: as §1
# [9] = biological target: Neu5Ac(a2-3)Gal(b1-4)[Fuc(a1-3)]GlcNAc(b1-3)Gal(b1-4)GlcNAc
# Outline: as §1
# [10] = biological target: Neu5Ac(a2-3)Gal(b1-4)[Fuc(a1-3)]GlcNAc(b1-3)Gal(b1-4)[Fuc(a1-3)]GlcNAc(b1-3)Gal(b1-4)[Fuc(a1-3)]GlcNAc
# Outline: as §1
# [11] = biological target: Neu5Ac(a2-3)Gal(b1-4)[Fuc(a1-3)]GlcNAc(b1-3)GalNAc
# Outline: as §1
# [12] = biological target: Neu5Ac(a2-3)Gal(b1-4)[Fuc(a1-3)]GlcNAc(b1-6)[Gal(b1-3)]GalNAc
# Outline: as §1
# [13] = biological target: Neu5Ac(a2-3)Gal(b1-4)[Fuc(a1-3)]GlcNAc(b1-6)[Neu5Ac(a2-3)Gal(b1-3)]GalNAc
# Outline: as §1
# [14] = biological target: Neu5Ac(a2-3)Gal(b1-4)[Fuc(a1-3)]GlcNAc6S
# Outline: as §1
# [15] = biological target: Neu5Ac(a2-3)Gal6S(b1-4)GlcNAc
# Outline: as §1
# [16] = biological target: Neu5Ac(a2-3)Gal6S(b1-4)[Fuc(a1-3)]GlcNAc
# Outline: as §1
# Neu5Ac(a2-3)GalNAc = biological target: Neu5Ac(a2-3)GalNAc
# Outline: as §1
# [17] = biological target: Neu5Ac(a2-3)GalNAc(b1-4)GlcNAc
# Outline: as §1
# [18] = biological target: Neu5Ac(a2-3)[GalNAc(b1-4)]Gal(b1-4)Glc
# Outline: as §1
# [19] = biological target: Neu5Ac(a2-3)[GalNAc(b1-4)]Gal(b1-4)GlcNAc
# Outline: as §1
# [20] = biological target: Neu5Ac(a2-3)[GalNAc(b1-4)]Gal(b1-4)GlcNAc(b1-3)GalNAc
# Outline: as §1
# [21] = biological target: Neu5Ac(a2-3)[Neu5Ac(a2-6)]GalNAc
# Outline: as §1
# Neu5Ac(a2-6)Gal = biological target: Neu5Ac(a2-6)Gal
# Outline: as §1
# [22] = biological target: Neu5Ac(a2-6)Gal(b1-3)GlcNAc(b1-3)[Gal(b1-4)GlcNAc(b1-6)]Gal(b1-4)Glc
# Outline: as §1
# Neu5Ac(a2-6)Gal(b1-4)Glc = biological target: Neu5Ac(a2-6)Gal(b1-4)Glc
# Outline: as §1
# [23] = biological target: Neu5Ac(a2-6)Gal(b1-4)GlcNAc
# Outline: as §1
# [24] = biological target: Neu5Ac(a2-6)Gal(b1-4)GlcNAc(b1-2)Man
# Outline: as §1
# [25] = biological target: Neu5Ac(a2-6)Gal(b1-4)GlcNAc(b1-2)Man(a1-3)Man(b1-4)GlcNAc(b1-4)GlcNAc
# Outline: as §1
# [26] = biological target: Neu5Ac(a2-6)Gal(b1-4)GlcNAc(b1-2)Man(a1-3)[Gal(b1-4)GlcNAc(b1-2)Man(a1-6)]Man(b1-4)GlcNAc(b1-4)GlcNAc
# Outline: as §1
# [27] = biological target: Neu5Ac(a2-6)Gal(b1-4)GlcNAc(b1-2)Man(a1-3)[GlcNAc(b1-2)Man(a1-6)]Man(b1-4)GlcNAc(b1-4)GlcNAc
# Outline: as §1
binder,measurement,setting,value
B1,glycan array binding signal (z-score),[1],-0.426
same,glycan array binding signal (z-score),[2],-0.724
same,glycan array binding signal (z-score),[3],-0.238
same,glycan array binding signal (z-score),[4],-0.216
same,glycan array binding signal (z-score),[5],-0.184
same,glycan array binding signal (z-score),[6],-0.243
same,glycan array binding signal (z-score),[7],-0.811
same,glycan array binding signal (z-score),[8],-0.045
same,glycan array binding signal (z-score),[9],-0.382
same,glycan array binding signal (z-score),[10],0.84
same,glycan array binding signal (z-score),[11],-0.101
same,glycan array binding signal (z-score),[12],0.506
same,glycan array binding signal (z-score),[13],0.198
same,glycan array binding signal (z-score),[14],-0.616
same,glycan array binding signal (z-score),[15],-0.035
same,glycan array binding signal (z-score),[16],5.49
same,glycan array binding signal (z-score),Neu5Ac(a2-3)GalNAc,-0.904
same,glycan array binding signal (z-score),[17],-0.428
same,glycan array binding signal (z-score),[18],0.331
same,glycan array binding signal (z-score),[19],-0.151
same,glycan array binding signal (z-score),[20],1.44
same,glycan array binding signal (z-score),[21],-0.101
same,glycan array binding signal (z-score),Neu5Ac(a2-6)Gal,-0.313
same,glycan array binding signal (z-score),[22],-0.585
same,glycan array binding signal (z-score),Neu5Ac(a2-6)Gal(b1-4)Glc,-0.256
same,glycan array binding signal (z-score),[23],3
same,glycan array binding signal (z-score),[24],-0.232
same,glycan array binding signal (z-score),[25],0.972
same,glycan array binding signal (z-score),[26],-0.353
same,glycan array binding signal (z-score),[27],0.025

# Another view of some results above.
binder	measurement	setting	value
B1	glycan array binding signal (z-score)	[4]	-0.216
same	glycan array binding signal (z-score)	[17]	-0.428

# — the supplement of paper PMC8728848
